Measurements reported in PubChem BioAssay AID1224829 (NIAID, 2016)
Assay: 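Genes needed for LPS-driven NF-kappaB p65 nuclear entry in mouse macrophages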 (follow-up of hits). Cell system: mouse RAW264.7 G9 macrophage reporter cells. Reagents: single siRNA against mouse genes, 100 nM. Duration: 2 days of siRNA knock-down, then 40 min of LPS before fixing. Treatment: LPS (Salmonella minnesota R595) at 10 ng/ml. Measurement: 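Imaging of GFP-p65 after 40 min of LPS; nuclear over perinuclear ring intensity ratio, scaled to plate median and non-targeting control wells, given as z-score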. Direction: p65 translocation z-score and gene median z-score, per vendor: higher = more nuclear NF-kappaB p65 after LPS. Active means: 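An siRNA is called active when the mean z-score of its two replicates is above 2 or below -2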. Calls: active = changed p65 translocation (either direction); inactive = no clear change.
This is an unselected part of about 3,800 reagents. 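Calls cover raised and lowered translocation; gene median uses one vendor's three siRNAs; qiagen siRNAs acted more weakly than ambion siRNAs.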 Unmarked entries are inactive. The numbers tell different reagents against one gene apart.

gene symbol | reagent no. | siRNA vendor or control pool | p65 translocation z-score, replicate mean | p65 translocation z-score, replicate 1 | p65 translocation z-score, replicate 2 | gene median z-score, per vendor
Cdkn1a (cyclin dependent kinase inhibitor 1A) | 1 | ambion single siRNA | 1.32 | 6.01 | -3.38 | 3.83
Cdkn1a (cyclin dependent kinase inhibitor 1A) | 2 | ambion single siRNA | 5.56 (active) | 5.56 | – | 3.83
Cdkn1a (cyclin dependent kinase inhibitor 1A) | 3 | ambion single siRNA | 0.137 | 3.83 | -3.56 | 3.83
Cdkn1a (cyclin dependent kinase inhibitor 1A) | 4 | qiagen single siRNA | -0.587 | -1.3 | 0.128 | -3.2
Cdkn1a (cyclin dependent kinase inhibitor 1A) | 5 | qiagen single siRNA | -5.01 (active) | -4.46 | -5.55 | -3.2
Cdkn1a (cyclin dependent kinase inhibitor 1A) | 6 | qiagen single siRNA | -3.2 (active) | -2.49 | -3.91 | -3.2
2410018L13Rik (RIKEN cDNA 2410018L13 gene) | 1 | ambion single siRNA | -4.29 (active) | -5.35 | -3.22 | -4.8
2410018L13Rik (RIKEN cDNA 2410018L13 gene) | 2 | ambion single siRNA | -5.19 (active) | -5.96 | -4.42 | -4.8
2410018L13Rik (RIKEN cDNA 2410018L13 gene) | 3 | ambion single siRNA | -2.95 (active) | -0.72 | -5.18 | -4.8
2410018L13Rik (RIKEN cDNA 2410018L13 gene) | 4 | qiagen single siRNA | 1.12 | 1.68 | 0.571 | 0.571
2410018L13Rik (RIKEN cDNA 2410018L13 gene) | 5 | qiagen single siRNA | -4.27 (active) | -4.27 | – | 0.571
2410018L13Rik (RIKEN cDNA 2410018L13 gene) | 6 | qiagen single siRNA | -0.0553 | -1.03 | 0.918 | 0.571
Ctcf (CCCTC-binding factor) | 1 | ambion single siRNA | -1.62 | 0.578 | -3.83 | -3.38
Ctcf (CCCTC-binding factor) | 2 | ambion single siRNA | -2.81 (active) | -2.94 | -2.68 | -3.38
Ctcf (CCCTC-binding factor) | 3 | ambion single siRNA | -7.46 (active) | -6.7 | -8.22 | -3.38
Ctcf (CCCTC-binding factor) | 4 | qiagen single siRNA | 0.592 | 0.14 | 1.04 | -2.48
Ctcf (CCCTC-binding factor) | 5 | qiagen single siRNA | -3.37 (active) | -2.85 | -3.89 | -2.48
Ctcf (CCCTC-binding factor) | 6 | qiagen single siRNA | -2.99 (active) | -2.11 | -3.86 | -2.48
Taf12 (TATA-box binding protein associated factor 12) | 1 | ambion single siRNA | -1.21 | -2.86 | 0.429 | -1.96
Taf12 (TATA-box binding protein associated factor 12) | 2 | ambion single siRNA | -2.98 (active) | -3.17 | -2.78 | -1.96
Taf12 (TATA-box binding protein associated factor 12) | 3 | ambion single siRNA | -0.862 | -0.595 | -1.13 | -1.96
Lrrc59 (leucine rich repeat containing 59) | 1 | ambion single siRNA | 0.204 | 0.808 | -0.4 | -0.216
Lrrc59 (leucine rich repeat containing 59) | 2 | ambion single siRNA | 0.126 | -0.0329 | 0.285 | -0.216
Lrrc59 (leucine rich repeat containing 59) | 3 | ambion single siRNA | -2.81 (active) | -2.04 | -3.58 | -0.216
Lrrc59 (leucine rich repeat containing 59) | 4 | qiagen single siRNA | 5.46 (active) | 5.01 | 5.91 | -0.467
Lrrc59 (leucine rich repeat containing 59) | 5 | qiagen single siRNA | -2.7 (active) | -1.9 | -3.5 | -0.467
Lrrc59 (leucine rich repeat containing 59) | 6 | qiagen single siRNA | -0.467 | -0.072 | -0.861 | -0.467
Cabp7 (calcium binding protein 7) | 1 | ambion single siRNA | 4.08 (active) | 3.29 | 4.87 | 0.38
Cabp7 (calcium binding protein 7) | 2 | ambion single siRNA | -5.05 (active) | -5.05 | – | 0.38
Cabp7 (calcium binding protein 7) | 3 | ambion single siRNA | -1.02 | 0.38 | -2.42 | 0.38
Cabp7 (calcium binding protein 7) | 4 | qiagen single siRNA | -1.52 | -1.59 | -1.44 | -2.13
Cabp7 (calcium binding protein 7) | 5 | qiagen single siRNA | -3.58 (active) | -2.04 | -5.13 | -2.13
Cabp7 (calcium binding protein 7) | 6 | qiagen single siRNA | -3.41 (active) | -2.23 | -4.59 | -2.13
Or10g1b (olfactory receptor family 10 subfamily G member 1B) | 1 | ambion single siRNA | -1.58 | -0.417 | -2.74 | -2.34
Or10g1b (olfactory receptor family 10 subfamily G member 1B) | 2 | ambion single siRNA | -1.93 | -1.93 | -1.94 | -2.34
Or10g1b (olfactory receptor family 10 subfamily G member 1B) | 3 | ambion single siRNA | -4.32 (active) | -4.42 | -4.22 | -2.34
Or10g1b (olfactory receptor family 10 subfamily G member 1B) | 4 | qiagen single siRNA | -0.132 | -0.122 | -0.142 | 0.655
Or10g1b (olfactory receptor family 10 subfamily G member 1B) | 5 | qiagen single siRNA | 2.01 (active) | 1.75 | 2.27 | 0.655
Or10g1b (olfactory receptor family 10 subfamily G member 1B) | 6 | qiagen single siRNA | 0.655 | 1.33 | -0.0174 | 0.655
Pard6a (par-6 family cell polarity regulator alpha) | 1 | ambion single siRNA | -0.483 | 0.298 | -1.26 | -1.26
Pard6a (par-6 family cell polarity regulator alpha) | 2 | ambion single siRNA | -1.52 | -1.63 | -1.4 | -1.26
Pard6a (par-6 family cell polarity regulator alpha) | 3 | ambion single siRNA | -0.472 | 0.319 | -1.26 | -1.26
Ripk2 (receptor (TNFRSF)-interacting serine-threonine kinase 2) | 1 | ambion single siRNA | 1.23 | 0.348 | 2.11 | -1.11
Ripk2 (receptor (TNFRSF)-interacting serine-threonine kinase 2) | 2 | ambion single siRNA | -1.11 | -0.799 | -1.43 | -1.11
Ripk2 (receptor (TNFRSF)-interacting serine-threonine kinase 2) | 3 | ambion single siRNA | -3.74 (active) | -4.31 | -3.18 | -1.11
Ripk2 (receptor (TNFRSF)-interacting serine-threonine kinase 2) | 4 | qiagen single siRNA | 0.875 | 0.29 | 1.46 | 0.875
Ripk2 (receptor (TNFRSF)-interacting serine-threonine kinase 2) | 5 | qiagen single siRNA | 3.69 (active) | 2.83 | 4.56 | 0.875
Ripk2 (receptor (TNFRSF)-interacting serine-threonine kinase 2) | 6 | qiagen single siRNA | -1.32 | -2.03 | -0.598 | 0.875
Mtmr3 (myotubularin related protein 3) | 1 | ambion single siRNA | -0.694 | -0.145 | -1.24 | -1.24
Mtmr3 (myotubularin related protein 3) | 2 | ambion single siRNA | -1.19 | -1.51 | -0.873 | -1.24
Mtmr3 (myotubularin related protein 3) | 3 | ambion single siRNA | -9.78 (active) | -9.78 | – | -1.24
Mtmr3 (myotubularin related protein 3) | 4 | qiagen single siRNA | -0.626 | -1.08 | -0.17 | -0.729
Mtmr3 (myotubularin related protein 3) | 5 | qiagen single siRNA | -0.266 | -0.155 | -0.377 | -0.729
Mtmr3 (myotubularin related protein 3) | 6 | qiagen single siRNA | -5.58 (active) | -4.69 | -6.48 | -0.729

Records above whose target name begins with R or r:
gene symbol | reagent no. | siRNA vendor or control pool | p65 translocation z-score, replicate mean | p65 translocation z-score, replicate 1 | p65 translocation z-score, replicate 2 | gene median z-score, per vendor
Ripk2 (receptor (TNFRSF)-interacting serine-threonine kinase 2) | 1 | ambion single siRNA | 1.23 | 0.348 | 2.11 | -1.11
Ripk2 (receptor (TNFRSF)-interacting serine-threonine kinase 2) | 2 | ambion single siRNA | -1.11 | -0.799 | -1.43 | -1.11
Ripk2 (receptor (TNFRSF)-interacting serine-threonine kinase 2) | 3 | ambion single siRNA | -3.74 (active) | -4.31 | -3.18 | -1.11
Ripk2 (receptor (TNFRSF)-interacting serine-threonine kinase 2) | 4 | qiagen single siRNA | 0.875 | 0.29 | 1.46 | 0.875
Ripk2 (receptor (TNFRSF)-interacting serine-threonine kinase 2) | 5 | qiagen single siRNA | 3.69 (active) | 2.83 | 4.56 | 0.875
Ripk2 (receptor (TNFRSF)-interacting serine-threonine kinase 2) | 6 | qiagen single siRNA | -1.32 | -2.03 | -0.598 | 0.875
